Test results: patent US20170189504A1, “NOVEL PEPTIDES AND COMBINATION OF PEPTIDES FOR USE IN IMMUNOTHERAPY AGAINST VARIOUS CANCERS” (immatics biotechnologies GmbH, priority 2015, published 2017)
For part of these data: Expression values are those of the mRNA of the gene that encodes the peptide; a gene is named only where it was looked up.

How the values were obtained:
HLA-A*02 = assay: Identification and relative LC-MS quantitation of HLA-A*02-presented tumor-associated peptides on tissue samples (presentation profiles, Tables 13A, 13B, 15, FIG. 1); design: species or system human; key to Presentation score NHL / Presentation score CLL / Presentation score BRCA / Presentation score AML / Presentation score GB / Presentation score NSCLC / Presentation score GBC_CCC / Presentation score UEC / Presentation score MEL / Presentation score OSCAR / Presentation score GC / Presentation score UBC / Presentation score OC / Presentation score RCC / Presentation score CRC / Presentation score PCA / Presentation score HCC / Presentation score PC / Presentation score SCLC: specifically presented on tumors (++++); very highly over-presented on tumors compared to a panel of normal tissues (+++); highly over-presented on tumors compared to a panel of normal tissues (++); over-presented on tumors compared to a panel of normal tissues (+); details: for Presentation score BRCA: breast cancer (N = 17) vs panel of normal tissues (N = 262); for Presentation score NHL: non-Hodgkin lymphoma (N = 18) vs panel of normal tissues (N = 262); for Peptide Presentation on cancer entities: HLA-A*02-binding tumor-associated peptides
source genes (mRNA) [1] = assay: Gene and exon expression of source genes, TCGA tumor samples compared with normal tissue samples (Lonsdale, 2013) (Table 17); design: species or system human; details: for Target coverage: over-expression category of source gene, LAML: Acute Myeloid Leukemia (N = 173); for Target coverage: over-expression category of source gene, BRCA: Breast cancer (N = 1104), cutoff more than 2-fold above highest 75% percentile of high and medium risk normal tissue samples; for Target coverage: over-expression category of source gene, ESCA: Esophageal cancer (N = 185); for Target coverage: over-expression category of source gene, STAD: Stomach adenocarcinoma (N = 415)
source genes (mRNA) [2] = assay: Expression profiling of source genes by in-house RNASeq of tumor and normal tissues (Table 18, FIG. 2); design: species or system human; key: very highly over-expressed in tumors compared to a panel of normal tissues (+++); highly over-expressed in tumors compared to a panel of normal tissues (++); over-expressed in tumors compared to a panel of normal tissues (+); details: source gene of peptide; for Expression score NSCLC: non-small cell lung cancer (N = 11) vs panel of normal tissues; for Expression score OC: ovarian cancer (N = 12) vs panel of normal tissues; for Expression score SCLC: small cell lung cancer (N = 10) vs panel of normal tissues; for Expression score PC: pancreatic cancer (N = 26) vs panel of normal tissues; for Expression score PCA: prostate cancer and benign prostate hyperplasia (N = 5) vs panel of normal tissues; for Expression score UEC: uterine cancer (N = 10) vs panel of normal tissues
[3] = Table 13A, cancer entities on which the peptide was found presented
[4] = Table 13B, presentation on additional cancer entities
[5] = cutoff more than 2-fold above highest 75% percentile of normal tissue samples

93: peptide found in TTI1 (gene looked up) (QVLELDVADI; listed as Homo sapiens) [compound 93]
Presentation score AML (HLA-A*02; HLA-A*02 peptides, acute myeloid leukemia (N = 18) vs panel of normal tissues (N = 262)): +++ | Presentation score BRCA (HLA-A*02; HLA-A*02 peptides): +++ | Presentation score CRC (HLA-A*02; HLA-A*02 peptides, colorectal cancer (N = 28) vs panel of normal tissues (N = 262)): +++ | Presentation score GC (HLA-A*02; HLA-A*02 peptides, gastric cancer (N = 29) vs panel of normal tissues (N = 262)): +++ | Presentation score NHL (HLA-A*02; HLA-A*02 peptides): +++ | Presentation score NSCLC (HLA-A*02; HLA-A*02 peptides, non-small cell lung cancer (N = 90) vs panel of normal tissues (N = 262)): +++ | Presentation score PCA (HLA-A*02; HLA-A*02 peptides, prostate cancer and benign prostate hyperplasia (N = 39) vs panel of normal tissues (N = 262)): +++ | Presentation score SCLC (HLA-A*02; HLA-A*02 peptides, small cell lung cancer (N = 19) vs panel of normal tissues (N = 262)): +++ | Presentation score UBC (HLA-A*02; HLA-A*02 peptides, urinary bladder cancer (N = 16) vs panel of normal tissues (N = 262)): +++ | Presentation score UEC (HLA-A*02; HLA-A*02 peptides, uterine cancer (N = 15) vs panel of normal tissues (N = 262)): +++ | Peptide Presentation on cancer entities (HLA-A*02; [3]): GC, NSCLC, PCA, SCLC, UBC, UEC, BRCA, CRC, AML, NHL | Peptide Presentation on cancer entities (HLA-A*02; [4]): HNSCC | Target coverage: over-expression category of source gene, LAML (source genes (mRNA) [1]; [5]): A (>=50% of tumors above the cutoff) | Target coverage: over-expression category of source gene, BLCA (source genes (mRNA) [1]; Bladder urothelial carcinoma (N = 408), cutoff more than 2-fold above highest 75% percentile of normal tissue samples): B (>= 20% of tumors above the cutoff, but <50%) | Target coverage: over-expression category of source gene, BRCA (source genes (mRNA) [1]): C (>=5% of tumors above the cutoff, but <20%) | Target coverage: over-expression category of source gene, CHOL (source genes (mRNA) [1]; Cholangiocarcinoma (N = 36), cutoff more than 2-fold above highest 75% percentile of normal tissue samples): C (>=5% of tumors above the cutoff, but <20%) | Target coverage: over-expression category of source gene, READ (source genes (mRNA) [1]; Colon and rectal adenocarcinoma (N = 167), cutoff more than 2-fold above highest 75% percentile of normal tissue samples): A (>=50% of tumors above the cutoff) | Target coverage: over-expression category of source gene, COAD (source genes (mRNA) [1]; Colon and rectal adenocarcinoma (N = 462), cutoff more than 2-fold above highest 75% percentile of normal tissue samples): B (>= 20% of tumors above the cutoff, but <50%) | Target coverage: over-expression category of source gene, ESCA (source genes (mRNA) [1]; [5]): A (>=50% of tumors above the cutoff) | Target coverage: over-expression category of source gene, GBM (source genes (mRNA) [1]; Glioblastoma multiforme (N = 169), cutoff more than 2-fold above highest 75% percentile of normal tissue samples): B (>= 20% of tumors above the cutoff, but <50%) | Target coverage: over-expression category of source gene, KICH (source genes (mRNA) [1]; Kidney chromophobe (N = 66), cutoff more than 2-fold above highest 75% percentile of normal tissue samples): C (>=5% of tumors above the cutoff, but <20%) | Target coverage: over-expression category of source gene, LIHC (source genes (mRNA) [1]; Liver hepatocellular carcinoma (N = 374), cutoff more than 2-fold above highest 75% percentile of normal tissue samples): C (>=5% of tumors above the cutoff, but <20%) | Target coverage: over-expression category of source gene, LGG (source genes (mRNA) [1]; Lower grade glioma (N = 534), cutoff more than 2-fold above highest 75% percentile of normal tissue samples): C (>=5% of tumors above the cutoff, but <20%) | Target coverage: over-expression category of source gene, LUAD (source genes (mRNA) [1]; Lung adenocarcinoma (N = 517), cutoff more than 2-fold above highest 75% percentile of normal tissue samples): C (>=5% of tumors above the cutoff, but <20%) | Target coverage: over-expression category of source gene, LUSC (source genes (mRNA) [1]; Lung squamous cell carcinoma (N = 503), cutoff more than 2-fold above highest 75% percentile of normal tissue samples): B (>= 20% of tumors above the cutoff, but <50%) | Target coverage: over-expression category of source gene, DLBC (source genes (mRNA) [1]; Lymphoid neoplasm diffuse large B-cell lymphoma (N = 48), cutoff more than 2-fold above highest 75% percentile of normal tissue samples): C (>=5% of tumors above the cutoff, but <20%) | Target coverage: over-expression category of source gene, OV (source genes (mRNA) [1]; Ovarian serous cystadenocarcinoma (N = 309), cutoff more than 2-fold above highest 75% percentile of normal tissue samples): A (>=50% of tumors above the cutoff) | Target coverage: over-expression category of source gene, KIRP (source genes (mRNA) [1]; Papillary kidney carcinoma (N = 291), cutoff more than 2-fold above highest 75% percentile of normal tissue samples): C (>=5% of tumors above the cutoff, but <20%) | Target coverage: over-expression category of source gene, PRAD (source genes (mRNA) [1]; Prostate adenocarcinoma (N = 498), cutoff more than 2-fold above highest 75% percentile of normal tissue samples): C (>=5% of tumors above the cutoff, but <20%) | Target coverage: over-expression category of source gene, SKCM (source genes (mRNA) [1]; Skin cutaneous melanoma (N = 473), cutoff more than 2-fold above highest 75% percentile of normal tissue samples): B (>= 20% of tumors above the cutoff, but <50%) | Target coverage: over-expression category of source gene, STAD (source genes (mRNA) [1]; [5]): B (>= 20% of tumors above the cutoff, but <50%) | Target coverage: over-expression category of source gene, UCEC (source genes (mRNA) [1]; Uterine corpus endometrial carcinoma (N = 546), cutoff more than 2-fold above highest 75% percentile of normal tissue samples): B (>= 20% of tumors above the cutoff, but <50%) | Expression score CRC (source genes (mRNA) [2]; colorectal cancer (N = 20) vs panel of normal tissues): + | Expression score NSCLC (source genes (mRNA) [2]): + | Expression score OC (source genes (mRNA) [2]): + | Expression score SCLC (source genes (mRNA) [2]): +

99: peptide found in SMCHD1 (gene looked up) (YLLQSVNQLLL; listed as Homo sapiens) [compound 99]
Presentation score CLL (HLA-A*02; HLA-A*02 peptides, chronic lymphocytic leukemia (N = 17) vs panel of normal tissues (N = 262)): +++ | Presentation score NHL (HLA-A*02; HLA-A*02 peptides): +++ | Peptide Presentation on cancer entities (HLA-A*02; [3]): NSCLC, CLL, NHL | Target coverage: over-expression category of source gene, LAML (source genes (mRNA) [1]; [5]): A (>=50% of tumors above the cutoff) | Target coverage: over-expression category of source gene, BRCA (source genes (mRNA) [1]): C (>=5% of tumors above the cutoff, but <20%) | Target coverage: over-expression category of source gene, ESCA (source genes (mRNA) [1]; [5]): B (>= 20% of tumors above the cutoff, but <50%) | Target coverage: over-expression category of source gene, STAD (source genes (mRNA) [1]; [5]): B (>= 20% of tumors above the cutoff, but <50%) | Expression score AML (source genes (mRNA) [2]; acute myeloid leukemia (N = 11) vs panel of normal tissues): + | Expression score CLL (source genes (mRNA) [2]; chronic lymphocytic leukemia (N = 10) vs panel of normal tissues): +++ | Expression score GBC_CCC (source genes (mRNA) [2]; gallbladder adenocarcinoma and cholangiocarcinoma (N = 3) vs panel of normal tissues): + | Expression score GC (source genes (mRNA) [2]; gastric cancer (N = 11) vs panel of normal tissues): + | Expression score GB (source genes (mRNA) [2]; glioblastoma (N = 24) vs panel of normal tissues): + | Expression score NHL (source genes (mRNA) [2]; non-Hodgkin lymphoma (N = 10) vs panel of normal tissues): + | Expression score NSCLC (source genes (mRNA) [2]): + | Expression score OC (source genes (mRNA) [2]): + | Expression score PC (source genes (mRNA) [2]): + | Expression score PCA (source genes (mRNA) [2]): + | Expression score SCLC (source genes (mRNA) [2]): ++ | Expression score UEC (source genes (mRNA) [2]): +

100: peptide found in SLC18A2 (gene looked up) (ALLGMIIVGV; listed as Homo sapiens) [compound 100]
Presentation score BRCA (HLA-A*02; HLA-A*02 peptides): +++ | Peptide Presentation on cancer entities (HLA-A*02; [3]): PCA, SCLC, BRCA | Peptide Presentation on cancer entities (HLA-A*02; [4]): HCC, AML | Target coverage: over-expression category of source gene, LAML (source genes (mRNA) [1]; [5]): C (>=5% of tumors above the cutoff, but <20%) | Expression score HCC (source genes (mRNA) [2]; hepatocellular carcinoma (N = 15) vs panel of normal tissues): +++ | Expression score PC (source genes (mRNA) [2]): ++ | Expression score PCA (source genes (mRNA) [2]): +++ | Expression score UEC (source genes (mRNA) [2]): +
